Values from PubChem BioAssay AID1259308 (NCATS, 2017).

Assay: 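Knock-downs that increase output of a recombinant reporter protein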 (primary screen)
Cell system: human HEK293 embryonic kidney cells stably expressing firefly luciferase (HEK-CMV-Luc2-Hygro)
Reagents: single siRNA against human genes, 0.8 pmol siRNA per well
Duration: 72 h
Measurement: 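Reporter luminescence and viable-cell signal on separate replicate plates, given as percent of non-targeting control and median/MAD z-scores, plus per-cell luciferase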
Direction: total luciferase, z-score and total luciferase, % of control: higher = more reporter protein produced
Active means: 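Active when the median/MAD z-score for overall luciferase is greater than 3; a gene was taken forward for validation with new siRNAs if at least two of its three siRNAs passed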
Meaning of the calls: active = raised luciferase; inactive = no rise
The deposit covers about 59,000 reagents; below is a part drawn at random. In the full data, about 1,510 (2.6%) are marked active. 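Calls use total luciferase alone and ignore viability, so some active siRNAs may act by altering cell number.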 The numbers tell different reagents against one gene apart. Further read-outs or replicates are left out here.

Knock-down of DDB2 #1 resulted in: total luciferase, z-score 2.32; total luciferase, % of control 128; inactive.
After knock-down of DDB2 #2 the results were total luciferase, z-score -0.034; total luciferase, % of control 81.2; inactive.
Silencing of DDB2 #3 resulted in: total luciferase, z-score -0.695; total luciferase, % of control 68.1; inactive.
For MRPL16 #1, the values are total luciferase, z-score -1.29; total luciferase, % of control 56.3; inactive.
Depletion of MRPL16 #2 resulted in: total luciferase, z-score 1.23; total luciferase, % of control 106; inactive.
Depletion of MRPL16 #3 gave: total luciferase, z-score -1.32; total luciferase, % of control 55.6; inactive.
After knock-down of AFP #1, the record shows total luciferase, z-score 0.35; total luciferase, % of control 88.9; inactive.
After knock-down of AFP #2, the screen gave total luciferase, z-score 0.977; total luciferase, % of control 101; inactive.
AFP #3 gave total luciferase, z-score 1.02; total luciferase, % of control 102; inactive.
SNX10 #1 scored total luciferase, z-score 5.1; total luciferase, % of control 183; active.
SNX10 #2 gave total luciferase, z-score -0.551; total luciferase, % of control 70.9; inactive.
For SNX10 #3, the values are total luciferase, z-score 0.393; total luciferase, % of control 89.7; inactive.

2 entries from above, reduced to “total luciferase, z-score”:
AFP #2: 0.977
AFP #3: 1.02
